Experimental data from article PMC3656104.
These are yes or no findings as the source states them, for the method shown.

Sequences of proteins named here, by UniProt entry; tags and fusion partners are left off.
UniProt P62820: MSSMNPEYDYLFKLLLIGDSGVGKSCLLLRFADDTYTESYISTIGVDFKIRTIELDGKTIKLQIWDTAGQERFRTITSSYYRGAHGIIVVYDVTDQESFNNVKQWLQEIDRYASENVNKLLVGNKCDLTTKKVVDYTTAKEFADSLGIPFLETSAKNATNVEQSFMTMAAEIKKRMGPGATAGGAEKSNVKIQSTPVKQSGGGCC

Biological target: Rab1 (UniProt P62820)
Assay: pull-down; both purified

B1: SidD (enzyme, UniProt Q5ZSQ2 1-507)
chain: MVYYEIIKDIVFTYNLQFTHLIHNDRISEVNLGGVTMRSIITQICNGVLHGQSYQSGSNDLDKGNSEIFASSLFVHLNEQGKEIIKHKDSDDKIVIGYTKDGMAFQIVVDGFYGCERQAVFSFIDNYVLPLIDNFSLDLTRYPDSKKVTESLIHTIYSLRSKHAPLAEFTMSLCVTYQKDEQLFCAGFGIGDTGIAIKRNEGTIEQLVCHTEVDGFKDAFDNYSSANIDLVIERNSVFNTKVMPGDELVGYTYVPPMLEMTEKEFEVETVDGKKINKRIVRHLNLDPGNFDDKDPLFSQLLQVVKSKQKQLVEQAKETGQIQRFGDDFTVGRLVIPDQLLINQLRIHALSIGVSDGLLSYIKNENENKGFLGIYGFFTGADKNIEKATLYKNLIAKYQNNHFISLIILSALVSDSKTPLMTQYLVGYLDFPSKALLANKITELLLKELENPDMREILGSRLATDVIEELETKIIRYIHNPAGSDIHSTLNLWTADKIKAATNSSLTI
Question: B1 was tested. Which binding did it give?
Answer: no binding
